Test results reported in PMC11811199.
Changes are numbered by the printed parent chain. No constants are given. Whether binding was seen depends on the method and setting. Binding seen in cells or lysates may run through a third protein. Some results given as binding are weak or reduced against the parent protein; the word gives no strength. For some assays here: Where a sequence is shown, tags or fusion partners need not be part of it.

The chains behind the UniProt entries cited, without tags or fusion partners.
UniProt Q7Z434: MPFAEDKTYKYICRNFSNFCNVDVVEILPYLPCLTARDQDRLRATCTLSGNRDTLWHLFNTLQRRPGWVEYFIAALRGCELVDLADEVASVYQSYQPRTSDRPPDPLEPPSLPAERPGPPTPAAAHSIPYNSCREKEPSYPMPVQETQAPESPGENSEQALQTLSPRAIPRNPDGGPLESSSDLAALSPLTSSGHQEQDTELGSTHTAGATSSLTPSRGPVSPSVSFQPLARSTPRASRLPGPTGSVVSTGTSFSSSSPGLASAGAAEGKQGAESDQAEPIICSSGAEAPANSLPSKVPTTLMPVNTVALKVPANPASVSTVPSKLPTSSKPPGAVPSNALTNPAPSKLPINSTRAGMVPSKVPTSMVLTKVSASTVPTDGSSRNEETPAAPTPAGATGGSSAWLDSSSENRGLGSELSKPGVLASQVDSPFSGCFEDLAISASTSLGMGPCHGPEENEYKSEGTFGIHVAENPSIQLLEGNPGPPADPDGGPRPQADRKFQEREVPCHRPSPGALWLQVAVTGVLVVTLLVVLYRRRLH
UniProt Q14653: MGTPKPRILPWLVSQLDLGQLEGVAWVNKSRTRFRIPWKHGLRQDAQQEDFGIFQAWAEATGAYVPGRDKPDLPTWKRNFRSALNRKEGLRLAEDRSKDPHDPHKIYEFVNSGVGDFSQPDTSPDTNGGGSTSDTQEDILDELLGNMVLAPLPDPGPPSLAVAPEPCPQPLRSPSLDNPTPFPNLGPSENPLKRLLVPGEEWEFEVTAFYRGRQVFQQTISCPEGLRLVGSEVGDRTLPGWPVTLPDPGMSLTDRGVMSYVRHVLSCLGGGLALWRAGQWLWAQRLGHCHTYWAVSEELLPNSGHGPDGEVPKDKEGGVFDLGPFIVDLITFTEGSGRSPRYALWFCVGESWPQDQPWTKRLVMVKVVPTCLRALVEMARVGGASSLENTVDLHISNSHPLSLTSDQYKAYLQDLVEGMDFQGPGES

How the values were obtained:
Test in all cases: co-IP
Flag-MAVS = Flag-MAVS (UniProt Q7Z434)
TRIM71-Flag = biological target: T1, TRIM71-Flag (UniProt Q2Q1W2)
T1 sequence: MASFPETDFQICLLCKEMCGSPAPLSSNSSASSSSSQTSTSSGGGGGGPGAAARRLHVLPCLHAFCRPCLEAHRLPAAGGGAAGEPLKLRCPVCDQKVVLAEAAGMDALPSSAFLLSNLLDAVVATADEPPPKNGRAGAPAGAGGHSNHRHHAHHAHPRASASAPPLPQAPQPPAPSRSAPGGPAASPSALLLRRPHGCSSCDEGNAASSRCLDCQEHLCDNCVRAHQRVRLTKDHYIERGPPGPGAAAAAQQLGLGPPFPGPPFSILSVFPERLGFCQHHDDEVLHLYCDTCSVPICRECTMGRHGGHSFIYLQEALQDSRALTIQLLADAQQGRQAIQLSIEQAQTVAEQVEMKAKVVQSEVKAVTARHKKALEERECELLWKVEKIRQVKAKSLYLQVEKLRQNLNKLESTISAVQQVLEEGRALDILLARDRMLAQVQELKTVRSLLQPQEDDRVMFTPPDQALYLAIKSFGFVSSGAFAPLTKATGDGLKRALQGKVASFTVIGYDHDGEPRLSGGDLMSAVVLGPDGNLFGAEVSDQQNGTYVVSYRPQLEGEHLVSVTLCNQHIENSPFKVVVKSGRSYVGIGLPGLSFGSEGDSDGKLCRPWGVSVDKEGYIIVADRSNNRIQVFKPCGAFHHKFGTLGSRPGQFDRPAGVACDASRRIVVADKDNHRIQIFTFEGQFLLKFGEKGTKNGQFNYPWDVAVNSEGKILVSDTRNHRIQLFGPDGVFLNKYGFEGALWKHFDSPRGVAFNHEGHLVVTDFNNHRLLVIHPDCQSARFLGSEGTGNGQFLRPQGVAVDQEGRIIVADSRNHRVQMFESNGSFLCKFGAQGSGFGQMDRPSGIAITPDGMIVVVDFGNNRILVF

DYRK4-Flag = biological target: T2, DYRK4-Flag (UniProt Q9NR20)
T2 sequence: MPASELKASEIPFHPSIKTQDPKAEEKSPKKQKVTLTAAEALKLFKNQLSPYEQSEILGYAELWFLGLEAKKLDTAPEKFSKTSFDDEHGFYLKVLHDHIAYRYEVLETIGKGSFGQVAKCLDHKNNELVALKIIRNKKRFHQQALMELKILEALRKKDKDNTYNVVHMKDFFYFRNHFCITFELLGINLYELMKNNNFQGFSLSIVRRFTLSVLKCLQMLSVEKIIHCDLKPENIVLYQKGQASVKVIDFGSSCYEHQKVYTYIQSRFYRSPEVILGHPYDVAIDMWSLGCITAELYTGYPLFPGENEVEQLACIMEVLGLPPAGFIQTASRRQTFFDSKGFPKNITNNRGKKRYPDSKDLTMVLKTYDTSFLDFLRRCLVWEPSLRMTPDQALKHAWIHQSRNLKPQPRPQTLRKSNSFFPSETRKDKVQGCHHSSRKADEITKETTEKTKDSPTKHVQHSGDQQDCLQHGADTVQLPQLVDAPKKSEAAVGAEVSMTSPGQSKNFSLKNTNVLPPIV

Flag-TBK1 = biological target: T3, Flag-TBK1 (UniProt Q9UHD2)
T3 sequence: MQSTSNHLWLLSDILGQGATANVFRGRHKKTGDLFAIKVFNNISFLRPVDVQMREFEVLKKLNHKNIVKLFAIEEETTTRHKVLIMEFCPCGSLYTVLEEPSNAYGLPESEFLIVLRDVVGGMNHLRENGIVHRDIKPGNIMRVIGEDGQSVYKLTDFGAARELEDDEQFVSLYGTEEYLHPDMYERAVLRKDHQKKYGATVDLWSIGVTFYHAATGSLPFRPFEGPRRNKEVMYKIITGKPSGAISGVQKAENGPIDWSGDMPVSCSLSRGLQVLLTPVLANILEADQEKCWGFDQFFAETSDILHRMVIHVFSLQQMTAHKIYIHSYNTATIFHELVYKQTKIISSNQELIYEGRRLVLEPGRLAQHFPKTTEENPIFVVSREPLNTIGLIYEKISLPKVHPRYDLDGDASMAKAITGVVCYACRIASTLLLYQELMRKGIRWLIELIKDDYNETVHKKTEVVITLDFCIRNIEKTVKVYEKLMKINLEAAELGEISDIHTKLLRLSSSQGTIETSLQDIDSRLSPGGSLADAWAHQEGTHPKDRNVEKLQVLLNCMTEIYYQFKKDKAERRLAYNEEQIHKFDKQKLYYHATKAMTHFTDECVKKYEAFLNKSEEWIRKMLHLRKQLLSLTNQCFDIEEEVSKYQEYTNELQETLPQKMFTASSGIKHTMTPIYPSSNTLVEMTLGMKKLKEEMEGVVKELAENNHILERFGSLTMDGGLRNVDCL

[1] = biological target: T4, DYRK4-MT (K133R/Y264F)-Flag (UniProt Q9NR20)
T4 sequence: T2 sequence with K133R, Y264F

Measured: binding

HA-IRF3 (from UniProt Q14653 1-427)
binds: all assays above
